No constants are given. Whether binding was seen depends on the method and setting. Binding seen in cells or lysates may run through a third protein. A yes stands for co-enrichment or nearness to the bait. Other partners may have been found.
Biological target: wild-type KIBRA (WWC1), BirA*-FLAG BioID bait in MDA-MB-231 cells (UniProt Q8IX03)
Assay: proximity labelling; BioID: KIBRA constructs in pSTV2-BirA*-FLAG expressed in MDA-MB-231 cells, biotinylated proteins by mass spectrometry, biological duplicates, scored with SAINTexpress against negative controls (vector alone)

Sequences of proteins named here, by UniProt entry; tags and fusion partners are left off.
UniProt Q8IX03: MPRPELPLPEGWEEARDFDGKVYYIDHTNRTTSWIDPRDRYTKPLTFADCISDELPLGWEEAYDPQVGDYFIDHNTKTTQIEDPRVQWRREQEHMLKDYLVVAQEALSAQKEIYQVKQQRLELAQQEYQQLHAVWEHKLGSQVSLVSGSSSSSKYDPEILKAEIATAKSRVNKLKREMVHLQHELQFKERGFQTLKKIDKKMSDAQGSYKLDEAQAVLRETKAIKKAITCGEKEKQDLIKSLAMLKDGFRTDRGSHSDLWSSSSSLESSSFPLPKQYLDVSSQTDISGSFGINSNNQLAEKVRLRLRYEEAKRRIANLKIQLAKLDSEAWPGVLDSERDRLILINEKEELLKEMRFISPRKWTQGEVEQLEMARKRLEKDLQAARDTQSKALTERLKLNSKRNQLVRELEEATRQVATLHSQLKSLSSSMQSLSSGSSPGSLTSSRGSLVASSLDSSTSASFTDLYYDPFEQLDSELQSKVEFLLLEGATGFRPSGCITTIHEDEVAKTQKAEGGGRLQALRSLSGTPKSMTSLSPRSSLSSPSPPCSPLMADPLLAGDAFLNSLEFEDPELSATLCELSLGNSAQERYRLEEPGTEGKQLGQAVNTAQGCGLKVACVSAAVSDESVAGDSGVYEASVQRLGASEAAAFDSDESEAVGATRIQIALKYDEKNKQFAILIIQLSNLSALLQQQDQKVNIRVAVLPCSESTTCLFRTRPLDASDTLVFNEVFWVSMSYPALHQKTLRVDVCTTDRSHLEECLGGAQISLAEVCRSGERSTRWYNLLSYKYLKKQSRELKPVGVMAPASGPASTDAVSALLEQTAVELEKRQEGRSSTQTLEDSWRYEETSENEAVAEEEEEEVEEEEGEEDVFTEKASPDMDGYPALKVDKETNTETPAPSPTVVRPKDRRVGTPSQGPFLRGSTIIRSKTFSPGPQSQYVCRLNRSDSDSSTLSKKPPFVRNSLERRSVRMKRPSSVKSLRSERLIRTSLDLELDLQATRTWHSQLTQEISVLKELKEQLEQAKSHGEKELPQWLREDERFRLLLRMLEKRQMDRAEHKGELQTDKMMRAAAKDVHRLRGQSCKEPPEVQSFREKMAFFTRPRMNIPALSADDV

B1: PTPN14 (protein tyrosine phosphatase non-receptor 14) (enzyme, UniProt Q15678 1-1187)
chain: MPFGLKLRRTRRYNVLSKNCFVTRIRLLDSNVIECTLSVESTGQECLEAVAQRLELRETHYFGLWFLSKSQQARWVELEKPLKKHLDKFANEPLLFFGVMFYVPNVSWLQQEATRYQYYLQVKKDVLEGRLRCTLDQVIRLAGLAVQADFGDYNQFDSQDFLREYVLFPMDLALEEAVLEELTQKVAQEHKAHSGILPAEAELMYINEVERLDGFGQEIFPVKDNHGNCVHLGIFFMGIFVRNRIGRQAVIYRWNDMGNITHNKSTILVELINKEETALFHTDDIENAKYISRLFATRHKFYKQNKICTEQSNSPPPIRRQPTWSRSSLPRQQPYILPPVHVQCGEHYSETHTSQDSIFHGNEEALYCNSHNSLDLNYLNGTVTNGSVCSVHSVNSLNCSQSFIQASPVSSNLSIPGSDIMRADYIPSHRHSAIIVPSYRPTPDYETVMRQMKRGILHTDSQSQSLRNLNIINTHAYNQPEDLVYSQPEMRERHPYTVPYGPQGVYSNKLVSPSDQRNPKNNVVPSKPGASAISHTVSTPELANMQLQGSHNYSTAHMLKNYLFRPPPPYPRPRPATSTPDLASHRHKYVSGSSPDLVTRKVQLSVKTFQEDSSPVVHQSLQEVSEPLTATKHHGTVNKRHSLEVMNSMVRGMEAMTLKSLHLPMARRNTLREQGPPEEGSGSHEVPQLPQYHHKKTFSDATMLIHSSESEEEEEEAPESVPQIPMLREKMEYSAQLQAALARIPNKPPPEYPGPRKSVSNGALRQDQASLPPAMARARVLRHGPAKAISMSRTDPPAVNGASLGPSISEPDLTSVKERVKKEPVKERPVSEMFSLEDSIIEREMMIRNLEKQKMAGLEAQKRPLMLAALNGLSVARVSGREENRVDATRVPMDERFRTLKKKLEEGMVFTEYEQIPKKKANGIFSTAALPENAERSRIREVVPYEENRVELIPTKENNTGYINASHIKVVVGGAEWHYIATQGPLPHTCHDFWQMVWEQGVNVIAMVTAEEEGGRTKSHRYWPKLGSKHSSATYGKFKVTTKFRTDSVCYATTGLKVKHLLSGQERTVWHLQYTDWPDHGCPEDVQGFLSYLEEIQSVRRHTNSMLEGTKNRHPPIVVHCSAGVGRTGVLILSELMIYCLEHNEKVEVPMMLRLLREQRMFMIQTIAQYKFVYQVLIQFLQNSRLI
binding: binds

— PMC5873529
